We go through 14 molecules from patent US20200283507A1.

Results are given in words; binding and its absence hold for the method and conditions named. For part of these data: Binding calls can cover weak binding; strength is not graded here.

In test [1] the target is Hu/NoV/GII.3/Maizuru/2000/JP VLP (human norovirus GII.3). Briefly: VLP ELISA. Background: In an ELISA, binding on a coated surface is turned into a signal by an enzyme label.
Test [2] addresses Hu/NoV/GI.6/Hesse/1997/GE VLP (human norovirus GI.6). Nature of the test: VLP ELISA.
Test [3] deals with Hu/GII.6/Bethesda/2012/U.S. VLP (human norovirus GII.6). Nature of the test: VLP ELISA.
The target of test [4] is Hu/NoV/Snow Mountain/GII.2/U.S. VLP (human norovirus GII.2). Briefly: VLP ELISA.
Test [5] deals with Hu/NoV/GII.1/Hawaii/1971/U.S. VLP (human norovirus GII.1). Nature of the test: VLP ELISA.
Test [6] concerns the target Hu/NoV/GII.2/Henryton/1971/U.S. VLP (human norovirus GII.2). Briefly: VLP ELISA.
Test [7] deals with Hu/NoV/GII.7/DC119/U.S. VLP (human norovirus GII.7). Nature of the test: VLP ELISA.
Test [8] has as its target MD2004 VP1 double mutant G340A/E376Q (human norovirus GII.4). Briefly: ELISA on mutant VLP.

B1: VHH 14.5 (VHH)
VHH: DVQLQASGGGLVQAGGSLRLSCVASARTFSSYAMGWFRQAPGKEREFVAAISWSGASTDYADSVKGRFTISRDNAKKTVYLQMNTLKPEDTAVYYCAAHHITPTGSYYYSEPLPVDMVYDYWGQGTQVTVSS
For B1, the binding result in test [1], in test [2], in test [3], in test [4], in test [5] and in test [6] was “no binding” throughout. Also, the binding entry in test [7] is given as “no binding”.

B2: VHH 11.2 (VHH)
VHH: DVQLQASGGGLVQAGGSLRLSCAASTSRFSSYAMGWSRQAPGKQRELVASISSSGLTTNYADSVKGRFTISRDNAKNTVYLQMNSLKPEDTAVYYCKADGRRYSLNEYWGQGTQVTVSS
For B2, the binding entry in test [1], in test [2], in test [3], in test [4], in test [5] and in test [6] was “no binding” in each case. Moreover, the binding result in test [7] is reported as “no binding”.

B3: VHH 4.1 (VHH)
VHH: QVKLQQSGGGLVQPGGSLRLSCAASESTISINTLGWYRQAPGNQRELVATITTGGTTNYADSVKGRFTISRDNAKNTVYLQMNNLEPGDTAVYYCNLKRRDLQSRFGGYWGQGTQVTVSS
In the case of B3, the binding result in test [1] is recorded as “binds”; in test [2], “no binding”; in test [3], “binds”; in test [4], “binds”; in test [5] it was “binds”; in test [6] it was “binds”. Also, the binding result in test [7] and in test [8] was “binds” throughout.

B4: VHH 5.4 (VHH)
VHH: QVQLQQSGGGLVQPGGSLRLSCVASESTVSINIMGWYRQAPGKQRELVATITTGGTTNYADSVKGRFTISRDNAKNTVYLQMNSLEPEDTAVYYCNLKRRDLQARFGGYWGQGTQVTVSS
With B4, the binding entry in test [1] is on record as “binds”; in test [2], “no binding”; in test [3], “binds”; in test [4], “binds”; in test [5], “binds”; in test [6] it was “binds”. Further, the binding result in test [7] and in test [8] was “binds” in each case.

B5: VHH 2.1 (VHH)
VHH: QVQLQESGGGLVQAGGSLRLSCAASGLTFSSYAMGWFHQAPGKEREFVAAINWSGRDTYYADSVKGRFTISRDNRKNTVYLQMNSLKPEDTAVYYCAAAEFFSSGDPLPGMDYWGKGTLVTVSS
Turning to B5, the binding result in test [1], in test [2], in test [3], in test [4], in test [5] and in test [6] was “no binding” each time. In addition, the binding result in test [7] is recorded as “no binding”; in test [8] it was “binds”.

B6: VHH 1 (VHH)
VHH: QVQLQQSGGGLVQAGGSLRLSCAASGLAFSSYAITWLRQAPGTEREFVALISGSGSSTYYADSVKGRFTISRNNAKNTVYLQMNSLKPEDTAVYYCTASEFLLHPPPPNQKYDYWGQGTQVTVSS
For B6, the binding entry in test [1], in test [2], in test [3], in test [4], in test [5] and in test [6] was “no binding” each time. Also, the binding result was “no binding” in test [7] and “binds” in test [8].

B7: VHH 7.5 (VHH)
VHH: QVKLQESGGGLVQAGESLRLSCAASGSNFSINGVGWYRQAPGKQRELVAGITNGGYTSYADSVKGRFTISTDNAKNTVYLQMNSLRPEDTAVYYCNANFQIHRSGADYVRNYWGQGTQVTVSA
In the case of B7, the binding result in test [1] is “binds”; in test [2] it was “no binding”; in test [3], “binds”; in test [4], “binds”; in test [5], “binds”; in test [6], “binds”. The binding entry in test [7] and in test [8] was “binds” in each case.

B8: VHH 7.3 (VHH)
VHH: QVKLQESGGGLVQPGGSLRLSCTASRSIFTRAMAWYRQAPGKQRELVAAIDSGDRTHYADSVKGRFTISRNNAKDTLYLQMNSLKSEDTAVYYCNANLGALLDYWGQGTQVTVSS
Take B8: the binding entry in test [1], in test [2], in test [3], in test [4], in test [5] and in test [6] was “no binding” in each case. Also, the binding entry in test [7] is “no binding”.

B9: VHH 8.1 (VHH)
VHH: QVKLQESGGGLVQAGGSLRLSCAASGFTFATYAMAWYRQAPGKQRELVASISNFGSTAYGDSVKGRFTISRDNAKNTVYLEMNSLKSEDTAVYYCKRVRDVIGRPELWGQGTQVTVSS
As to B9, the binding entry in test [1], in test [2], in test [3], in test [4], in test [5] and in test [6] was “no binding” in each case. Besides, in test [7], the binding entry is “no binding”.

B10: VHH 13.1 (VHH)
VHH: QVKLQESGGGWVQAGGSLRLSCAASALTASITTMGWFRQTPEKEREFLAAINWTGDYKYYADSVKGRFTISRDNAKNTVDLQMNQLKPEDTAVYYCAASKIRNDIYLNDYTWYQYWGQGTQVTVSS
Turning to B10, the binding result in test [1], in test [2], in test [3], in test [4], in test [5] and in test [6] was “no binding” each time. The binding result in test [7] was “no binding”.

B11: VHH 6.3 (VHH)
VHH: QVQLQQSGGGLVQPGGSLRLSCAASGSIFSIHTMGWYRQAPGKQRELVTTITTGGTTNYADSVKGRFTISRDDAKNTVYLQMNNLKPEDTAVYYCYALIQTASTTWYRQYWGQGTQVTVSS
As to B11, the binding entry in test [1], in test [2], in test [3], in test [4], in test [5] and in test [6] was “no binding” each time. The binding result in test [7] is reported as “no binding”.

B12: VHH 3.2 (VHH)
VHH: QVQLQESGGGLVQPGGSLRLSCAASESTPSINTMGWYRQAPGKERELVATITSGGMTNYADSVKGRFTISRDNGKNTVYLQMNSLEPGDTAVYYCNLKRRDLQARFGGYWGQGTQVTVSS
Consider B12, for which the binding entry in test [1] is reported as “no binding”; in test [2], “no binding”; in test [3] it was “binds”; in test [4], “no binding”; in test [5] it was “no binding”; in test [6], “no binding”. Moreover, the binding entry in test [7] is recorded as “no binding”; in test [8], “binds”.

B13: VHH 12.2 (VHH)
VHH: DVQLQASGGGLVQAGGSLRLSCAASGSTISSYAMAWYRQAPGKRRELVAHISSGGSTNYADSVKGRFTISRDNAKNTVYLQMNSLKPEDTAVYYCNIYYGGDYYYTGVKPNPWGQGTQVTVSS
B13: the binding result in test [1], in test [2], in test [3], in test [4], in test [5] and in test [6] was “no binding” each time. The binding result in test [7] was “no binding”.

B14: VHH 19 (VHH)
VHH: QVKLQQSGGGLVQPGGSLRLSCAASGFTFRNYAMSWVRQAPGKGLEWVSAIAAGGAVTKYADSVKGRFTISRDNARDTLYLQMNSLKPEDTAVYYCAKPRDFWYSPEFDFRGQGTQVTVSS
Regarding B14, the binding result in test [1] is given as “binds”; in test [2], “no binding”; in test [3] it was “binds”; in test [4], “binds”; in test [5], “binds”; in test [6] it was “binds”. The binding entry in test [7] and in test [8] was “binds” throughout.
